Assay results published in paper PMC12134396.
Results are given in words; binding and its absence hold for the method and conditions named. In cells and extracts the contact can be indirect. Some binding calls cover weakened binding; strength is not graded here.

Sequences of proteins named here, by UniProt entry; tags and fusion partners are left off.
UniProt P42771: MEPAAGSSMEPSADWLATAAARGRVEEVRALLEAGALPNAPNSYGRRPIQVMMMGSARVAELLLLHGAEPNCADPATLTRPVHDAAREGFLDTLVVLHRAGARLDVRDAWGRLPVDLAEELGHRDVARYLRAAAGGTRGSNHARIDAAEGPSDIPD
UniProt P40763: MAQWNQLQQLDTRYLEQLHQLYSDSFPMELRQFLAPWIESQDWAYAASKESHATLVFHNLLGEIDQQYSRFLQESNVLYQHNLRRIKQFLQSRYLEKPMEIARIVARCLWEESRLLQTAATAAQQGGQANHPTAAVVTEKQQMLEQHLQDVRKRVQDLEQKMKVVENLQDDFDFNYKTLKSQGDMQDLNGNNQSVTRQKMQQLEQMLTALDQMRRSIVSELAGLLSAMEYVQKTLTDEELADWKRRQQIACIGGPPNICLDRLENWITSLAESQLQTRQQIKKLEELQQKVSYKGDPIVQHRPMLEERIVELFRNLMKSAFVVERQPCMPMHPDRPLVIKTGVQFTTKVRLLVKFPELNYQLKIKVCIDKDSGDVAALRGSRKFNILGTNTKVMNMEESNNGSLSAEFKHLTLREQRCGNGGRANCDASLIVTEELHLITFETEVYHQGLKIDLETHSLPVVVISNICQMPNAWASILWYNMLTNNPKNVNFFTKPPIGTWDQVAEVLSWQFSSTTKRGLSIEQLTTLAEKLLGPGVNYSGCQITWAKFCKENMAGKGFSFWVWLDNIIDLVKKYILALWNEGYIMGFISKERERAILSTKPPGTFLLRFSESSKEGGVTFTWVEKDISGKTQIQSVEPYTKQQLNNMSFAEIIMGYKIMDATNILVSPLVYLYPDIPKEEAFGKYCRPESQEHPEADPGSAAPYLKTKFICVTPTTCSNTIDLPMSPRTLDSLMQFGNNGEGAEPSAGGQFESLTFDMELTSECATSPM

Key:
[1] = biological target: Flag-p16 (human), from overexpression adenovirus in HEK293T cells (human) (UniProt P42771); assay: co-IP; HEK293T cells with Flag-p16 adenovirus and Myc-STAT3 plasmid (full length or domain deletion mutants); anti-Myc or anti-Flag immunoprecipitation; Western blots for Myc and Flag
[2] = biological target: p16^INK4a, overexpressed from adenovirus in fibroblasts (p16-OE) (UniProt P42771); assay: co-IP; HCFB and MRC-5 cells with p16 overexpression adenovirus; anti-p16 or anti-STAT3 immunoprecipitation; Western blots for p16 and STAT3; cytoplasm and nuclei

Row | binding [1] | binding [2] | Substance
1 | binds | – | Myc-STAT3, full-length human STAT3 (from UniProt P40763 1-770)
2 | – | binds | STAT3, endogenous in human fibroblasts (from UniProt P40763 1-770)
